# Test results reported in PubChem BioAssay AID588590 (National Center for Advancing Translational Sciences (NCATS), 2011).
# Protein sequences, listed by entry. Tags and fused reporters are not part of them. Lines headed by an entry give the natural chain unless they say otherwise; changes in a name come on top.
# UniProt Q9UNA4: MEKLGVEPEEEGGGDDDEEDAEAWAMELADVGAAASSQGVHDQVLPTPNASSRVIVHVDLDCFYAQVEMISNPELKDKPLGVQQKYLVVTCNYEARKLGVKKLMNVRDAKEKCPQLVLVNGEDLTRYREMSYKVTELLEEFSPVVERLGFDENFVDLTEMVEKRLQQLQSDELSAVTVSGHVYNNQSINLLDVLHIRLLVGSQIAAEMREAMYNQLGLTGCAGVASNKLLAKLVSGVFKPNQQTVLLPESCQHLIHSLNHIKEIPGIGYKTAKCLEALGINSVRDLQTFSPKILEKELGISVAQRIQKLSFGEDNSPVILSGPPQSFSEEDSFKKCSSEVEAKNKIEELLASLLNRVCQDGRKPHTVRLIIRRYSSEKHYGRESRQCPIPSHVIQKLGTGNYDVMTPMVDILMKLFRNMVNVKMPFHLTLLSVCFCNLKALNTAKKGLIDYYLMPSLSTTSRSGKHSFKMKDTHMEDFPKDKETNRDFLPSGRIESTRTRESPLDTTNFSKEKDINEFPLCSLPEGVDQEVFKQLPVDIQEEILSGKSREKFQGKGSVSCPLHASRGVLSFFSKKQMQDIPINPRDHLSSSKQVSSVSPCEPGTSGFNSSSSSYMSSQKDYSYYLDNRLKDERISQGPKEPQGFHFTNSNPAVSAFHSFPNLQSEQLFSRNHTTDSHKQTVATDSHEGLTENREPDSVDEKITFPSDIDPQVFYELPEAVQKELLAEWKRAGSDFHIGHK
# Several values for one entry are separate records, joined by “and”; a condition that tells them apart may be missing. Identical values can stand only once. The whole screen tested about 390,000 compounds, of which about 4,000 (1%) were called active. The inconclusive results got no clear call from the source; some entries with a clear call stand among them for comparison. Calls come from the whole dose curve; as a rule, active = well fitted inhibition curve with a large enough effect; inconclusive = small, poorly fitted or top-dose-only effect, or another doubt; inactive = no such curve, though single readings can be large or run the other way. Potencies of inconclusive entries are doubtful fits and often do not repeat.
# Target: DNA polymerase iota (Homo sapiens) (UniProt Q9UNA4)
# Assay: qHTS for Inhibitors of Polymerase Iota
# Conditions: Pol iota fluorescent replication assay, 10 min; series mostly up to 115 µM
# Outline: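 Fluorescent replication assay read twice, at 0 min and 10 min after adding 50 nM (final) substrate. Enzyme (10 nM) and compounds were first incubated 15 min at room temperature; enzyme-free buffer wells were negative controls.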
# Potency is the fitted concentration of half-maximal effect.
row,Structure (SMILES),Potency
1,Cc1cc(C)n(CC(=O)N2CCc3ccccc32)c(=O)c1C#N,"inconclusive: 79.4 µM [inhibitor, single point]"
2,Cc1ccc(NC(=O)Cn2c(O)c(N=NC(=O)c3cc4ccccc4cc3O)c3ccccc32)cc1,"inconclusive: 28.2 µM [inhibitor, full curve]"
3,Cc1cccc(Oc2ccccc2N)c1,"inconclusive: 17.8 µM [inhibitor, partial curve, poor fit]"
4,CCOC(=O)C1CCN(C(=O)c2cc(-c3ccncc3)nc3ccccc23)CC1,"inconclusive: 100 µM [inhibitor, single point]"
5,CCOC(=O)c1cc2c(=O)n3ccccc3nc2n(Cc2ccco2)c1=NC(=O)c1ccc(Br)cc1,active: 44.7 µM
6,CCN(CC)c1ccc(CC(=O)NC(C)Cc2ccccc2)cc1 (configuration not stated),"inconclusive: 31.6 µM [inhibitor, partial curve, poor fit]"
7,COCCCNC1=C(Cl)C(=O)c2ccccc2C1=O,inactive
8,COc1ccc(C)cc1NC(=O)COc1cc(=O)n(C)c2ccccc12,inactive
9,Cc1nn(Cc2cccc(C(=O)Nc3ccn(Cc4c(F)c(F)cc(F)c4F)n3)c2)c(C)c1[N+](=O)[O-],"inconclusive: 25.1 µM [inhibitor, full curve]"
10,O=C(CSc1oc(-c2ccccc2)nc1S(=O)(=O)c1ccc(Br)cc1)c1ccccc1,"inconclusive: 79.4 µM [inhibitor, single point]"
11,Cc1cc(=O)oc2cc(OCC(=O)Nc3ccc(N4CCC(C)CC4)cc3)ccc12,"inconclusive: 79.4 µM [inhibitor, partial curve, poor fit]"
12,Cc1ccccc1-c1nc(SCC(=O)NCc2ccc(F)cc2)c2c(=O)n(C)c(=O)n(C)c2n1,inactive
13,COc1ccc(CN2CC[C@H]3C=CCc4cccc(c43)C2)cc1,"inconclusive: 28.2 µM [inhibitor, single point]"
14,Cc1cc(C)n(CC(O)COc2ccc(C(C)(C)C)cc2)n1 (configuration not stated),"inconclusive: 50.1 µM [inhibitor, partial curve, poor fit]"
15,Cc1cc(C)cc(N=Cc2ccc([N+](=O)[O-])s2)c1,active: 79.4 µM
16,Cn1cccc1Cc1nnc(SCC(=O)NCc2ccco2)n1-c1ccc(F)cc1,"inconclusive: 100 µM [inhibitor, partial curve, poor fit]"
17,O=C(CSc1nc2ccccc2[nH]1)NC1CCS(=O)(=O)C1 (configuration not stated),"inconclusive: 4.47 µM [inhibitor, full curve, poor fit]"
18,O=C1c2cccc3c([N+](=O)[O-])ccc(c23)C(=O)N1c1ccccn1,"inconclusive: 25.1 µM [inhibitor, single point]"
19,COc1ccc(S(=O)(=O)N(CC(=O)N2CCN(c3ccccc3OC)CC2)c2ccccc2)cc1,"inconclusive: 39.8 µM [inhibitor, single point]"
20,COc1ccc(NC(=O)Nc2ccc([N+](=O)[O-])cc2)cn1,"inconclusive: 28.2 µM [inhibitor, single point]"
21,NC(=O)CN1C(=O)C2(SCC(=O)N2c2cccc(F)c2)c2ccccc21 (configuration not stated),"inconclusive: 89.1 µM [inhibitor, single point]"
22,CCCCCN1C2=NCCN2c2ccccc21,"inconclusive: 3.16 µM [inhibitor, partial curve, poor fit]"
23,CCOc1ccccc1NC(=O)C1CCCN(c2ncnc3onc(-c4ccc(F)cc4)c23)C1 (configuration not stated),inactive

row,Structure (SMILES),Potency
1,COc1cc(/C=N/NC(=O)NC23CC4CC(CC(C4)C2)C3)ccc1O,inactive
2,CCN1CCN(Cc2ccc(NC(=O)c3ccc(C)c(NC(=O)C(=O)c4c[nH]c5ccccc45)c3)cc2C(F)(F)F)CC1,"inconclusive: 79.4 µM [inhibitor, partial curve, poor fit] and inconclusive: 12.6 µM [inhibitor, full curve, poor fit]"
3,CC(C)c1csc2nc3n(c(=O)c12)CCCCC3,inactive
4,COc1ccc(N2CCN(C(=O)CSc3nnc(-c4cc5ccccc5cc4O)n3C)CC2)cc1,"inconclusive: 11.2 µM [inhibitor, partial curve, poor fit]"
5,Cc1cc(NC(=O)NC(=O)c2ccc(F)cc2F)n[nH]1,"inconclusive: 100 µM [inhibitor, partial curve, poor fit]"
6,CCOc1nc(CC)nc(NC(=O)NS(=O)(=O)c2ccccc2Cl)n1,"inconclusive: 2.82 µM [inhibitor, full curve, poor fit]"
7,CC(C)(C)c1cc(C(=O)NCCN2CCCC2)cc(C(C)(C)C)c1,inactive
8,CN(c1ncnc2c1c(-c1ccccc1)cn2-c1cccc(Cl)c1)C1CCCCC1,inactive
9,COc1ccccc1OCCN1C(=O)S/C(=C\c2ccco2)C1=O,"inconclusive: 15.8 µM [inhibitor, full curve, poor fit]"
10,COc1ccc(C2=Nn3c(nnc3C(F)(F)F)SC2)cc1,"inconclusive: 0.631 µM [inhibitor, full curve, poor fit]"
11,Cc1c(Cl)cccc1NC(=O)N1CCC(CN2CCOCC2)CC1,"inconclusive: 89.1 µM [inhibitor, single point]"
12,Cn1c(NN)nc2c1c(=O)n(Cc1ccccc1)c(=O)n2C,"inconclusive: 89.1 µM [inhibitor, single point]"
13,CC(=O)c1ccc(S(=O)(=O)Nc2ccc(-c3ccc(N4CCCCC4)nn3)cc2)cc1,"inconclusive: 89.1 µM [inhibitor, partial curve]"
14,CCCCNC(=O)c1onc(CSc2ccccc2CC)c1C(=O)O,"inconclusive: 20 µM [inhibitor, partial curve, poor fit]"
15,CCCn1c(-c2ccc(OC)cc2)nc2c(=O)n(C)c(=O)[nH]c21,inactive
16,Cc1ccc(C)c(NC(=O)Cn2ncc3c([nH]c4ccccc43)c2=O)c1,inactive
17,Cc1cc(/C=C2/C(=O)N(C)C(=S)N2C)c(C)n1C1CC1,inactive
18,Cc1cccc(NC(=O)c2cc3c(=O)n4ccccc4nc3s2)c1,"inconclusive: 31.6 µM [inhibitor, single point]"
19,Cc1cccc(NC(=O)CC2Nc3cccc4cccc(c34)NC2=O)c1 (configuration not stated),"inconclusive: 3.98 µM [inhibitor, full curve, poor fit] and inconclusive: 11.2 µM [inhibitor, partial curve, poor fit]"
20,N#CC1=C(N)SC(N)=C(C#N)C1c1ccc([N+](=O)[O-])cc1,"inconclusive: 15.8 µM [inhibitor, full curve, poor fit]"
21,CCCn1c(NCc2ccc(C)o2)nc2ccccc21,"inconclusive: 79.4 µM [inhibitor, partial curve, poor fit]"
22,COc1ccccc1NC1=C(Cl)C(=O)N(c2ccccc2)C1=O,"inconclusive: 79.4 µM [inhibitor, single point]"
23,O=C(CCn1c(=S)[nH]c2ccccc2c1=O)Nc1cccc(Cl)c1,inactive

row,Structure (SMILES),Potency
1,O=C(c1ccccc1C(=O)N(c1ccccc1)c1ccccc1)N1CCCCC1,"inconclusive: 89.1 µM [inhibitor, single point]"
2,CCOC(=O)COc1ccc(/C=C(\C#N)c2nc3ccc(C)cc3[nH]2)cc1OC,"inconclusive: 56.2 µM [inhibitor, partial curve, poor fit]"
3,Cc1ccccc1CNC(=O)Cn1c(C)c2cnn(-c3ccccc3)c(=O)c2c1C,"inconclusive: 89.1 µM [inhibitor, single point]"
4,Cc1ccc(-c2csc(NC(=O)Cc3ccc(F)cc3)n2)o1,inactive
5,Cc1ccc2c(CC(=O)Nc3cccc(C(F)(F)F)c3)coc2c1,"inconclusive: 89.1 µM [inhibitor, partial curve, poor fit]"
6,N#CCC(=O)Nc1ccc(C(=O)OCC(=O)NCc2ccc3c(c2)OCO3)cc1,inactive
7,O=C(NC(NC(=S)Nc1cc(Cl)ccc1Cl)C(Cl)(Cl)Cl)c1ccco1 (configuration not stated),"inconclusive: 39.8 µM [inhibitor, single point]"
8,CCOC(=O)c1nnn(CC(=O)NC(=O)Nc2ccccc2F)c1C(=O)OCC,"inconclusive: 56.2 µM [inhibitor, partial curve, poor fit]"
9,O=C(CCC(=O)Nc1ccccc1)N/N=C/c1ccco1,"inconclusive: 79.4 µM [inhibitor, partial curve]"
10,CN(C)S(=O)(=O)NCC1CCCN(Cc2ccc(-c3ccccc3)cc2)C1 (configuration not stated),inactive
11,COC(=O)CC1Sc2ccccc2NC1=O (configuration not stated),inactive
12,CCNc1ccc(Br)cc(C(=O)/C=C/c2ccc(Cl)cc2Cl)c1=O,active: 8.91 µM
13,CCc1cccc2c(C(O)c3c[nH]c4ccccc34)c[nH]c12 (configuration not stated),inactive
14,CNC(=S)N/N=C(\C)c1ccc2c(c1)OCO2,inactive
15,O=c1c2cc([N+](=O)[O-])cc([N+](=O)[O-])c2[nH]n1-c1ccccc1,"inconclusive: 35.5 µM [inhibitor, partial curve, poor fit]"
16,O=c1cc(O)n(-c2ccccc2)c(=S)[nH]1,"inconclusive: 39.8 µM [inhibitor, single point]"
17,Fc1ccc(Nc2nc(SCc3cccc(F)c3)nc3ccccc23)cc1,inactive
18,Cc1ccc(NC(=O)CC2SCCNC2=O)cc1Cl (configuration not stated),"inconclusive: 100 µM [inhibitor, single point]"
19,O=C1C=C(Nc2ccccc2C(=O)O)c2ccccc2C1=O,active: 17.8 µM
20,CC(=O)Nc1cccc(C(=O)/C=C/c2ccc(F)cc2)c1,"inconclusive: 12.6 µM [inhibitor, partial curve, poor fit]"
21,CCOC(=O)N1CCC(NC(=O)c2ccc3c(c2)N(Cc2ccccc2)C(=O)c2ccccc2S3(=O)=O)CC1,inactive
